Molecules are shown by their SMILES. Positions of bridges follow the written chain, without caps; N, C: chain ends. Non-standard residues stand in square brackets, D forms with d. Residues, ends and D or L forms follow the SMILES beside them. Cha = N[C@@H](CC1CCCCC1)C(=O)O

The data set is described as follows: NMR C-alpha secondary chemical shifts, helical propensity of free peptides. It counts as physicochemical. The following applies: free peptide, Cα SCSs Cha2-Leu7, 3.1 ppm as reference for 100% helicity, 5 °C, pH 7.0.

With `CC(C)C[C@H](NC(=O)[C@H](Cc1ccc(O)cc1)NC(=O)[C@@H](CCCNC(=N)N)NC(=O)[C@@H](CO)NC(=O)[C@H](Cc1ccccc1)NC(=O)[C@H](CC1CCCCC1)NC(=O)[C@H](CC(=O)O)NC(=O)CNC(=O)CNC(=O)[C@@H](CO)NC(=O)CNC(=O)[C@H](CCC(=O)O)NC(=O)[C@@H](N)CCC(=O)O)C(=O)N[C@@H](Cc1c[nH]c2ccccc12)C(=O)N[C@@H](CO)C(=O)O` [compound 4] (H-EEG[dS]GGD[Cha]F[dS][dR]YLWS-OH; N-terminus assumed), the helical propensity stood at 15%.

For the compound `CC(C)C[C@@H]1NC(=O)[C@H](Cc2ccc(O)cc2)NC(=O)[C@H](NC(=O)[C@@H](CO)NC(=O)[C@H](Cc2ccccc2)NC(=O)[C@H](CC2CCCCC2)NC(=O)[C@H](CC(=O)O)NC(=O)CNC(=O)CNC(=O)[C@@H](CO)NC(=O)CNC(=O)[C@H](CCC(=O)O)NC(=O)[C@@H](N)CCC(=O)O)CSSC[C@@H](C(=O)O)NC(=O)[C@H](Cc2c[nH]c3ccccc23)NC1=O` [compound 6] (H-EEG[dS]GGD[Cha]F[dS][dC]YLWC-OH; disulfide 11-15; N-terminus assumed), the helical propensity is recorded as 45%.

The record behind these values is article PMC10567728, “Targeted imaging of uPAR expression in vivo with cyclic AE105 variants” (Scientific Reports, 2023).
